Source: patent US11420910B2, “Methods for low temperature fluorine-18 radiolabeling of biomolecules” (KATHOLIEKE UNIVERSITEIT LEUVEN, priority 2014, dated 2022)
Some of these results come from one statement about several compounds together. For at least one compound, name, drawing or mass did not settle the structure.

Test: Stability tests of Al18F-complexes in rat serum at 37° C., Example 26
Format: in vitro ADME
Details: 120 min
Experimental: 400 μl of each purified [Al^18F]-complex solution was added to 1 mL of PBS and/or 1 mL of rat serum. […] Finally the supernatant was analysed using iTLC-SG.

Row | Structure (SMILES) | RCP
1 | O=C1CN(Cc2ccccc2)CCN2CC(=O)[O][Al-]([18F])([O]1)[O]c1ccc(F)cc1C2 (centres unmarked) [Al^18F-L4] | higher than 80%
2 | O=C1CN(Cc2ccccc2)CCN2CC(=O)[O][Al-]([18F])([O]1)[O]c1ccc([N+](=O)[O-])cc1C2 (centres unmarked) [Al^18F-L5] | higher than 80%
